We go through 42 sequences from PMC7819943, “Rice protein-binding microarrays: a tool to detect cis-acting elements near promoter regions in rice”.

Some of the results follow.

The target of this test is T1, OsSMF1 (Oryza sativa, UniProt Q6ZLB0 1-436).
T1 sequence: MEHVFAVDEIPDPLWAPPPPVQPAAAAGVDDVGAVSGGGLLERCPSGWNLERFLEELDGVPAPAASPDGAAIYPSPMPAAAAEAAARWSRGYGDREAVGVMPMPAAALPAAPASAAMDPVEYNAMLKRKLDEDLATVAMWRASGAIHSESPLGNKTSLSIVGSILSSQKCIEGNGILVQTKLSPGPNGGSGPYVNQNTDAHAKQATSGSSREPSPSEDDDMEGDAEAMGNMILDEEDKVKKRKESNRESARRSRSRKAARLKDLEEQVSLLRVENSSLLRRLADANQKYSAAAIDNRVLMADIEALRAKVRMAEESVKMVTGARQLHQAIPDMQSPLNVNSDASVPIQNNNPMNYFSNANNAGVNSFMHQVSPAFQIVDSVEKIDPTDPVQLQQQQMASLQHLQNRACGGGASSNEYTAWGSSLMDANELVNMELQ
In words: protein-binding microarray (RPBM); PBS, 2% BSA, 51.3 ng/ul salmon testes DNA, 50 uM zinc acetate, 200 nM TF, 25 C, 1 h; high values mean tight binding. As to conditions: protein: recombinant; tags: N-terminal polyhistidine and DsRed monomer fusion (pET32a); chain copies: 2; label: CyDye5-dUTP incorporated in the synthesized complementary strand; 3' TTTTT single-stranded linker to array surface; dsDNA, one strand shown. The procedure, abridged: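 The binding signal for each feature is its fluorescence intensity in arbitrary units. An Axon 4000B scanner was used to read a custom Agilent array that had been made double-stranded with Cy5-dUTP primer extension, blocked with 2% BSA, incubated at 25 °C for 1 h with 200 nM protein in PBS, 2% BSA, salmon testes DNA and 50 µM zinc acetate, and washed. The protein was an N-terminal polyhistidine–DsRed transcription factor fusion from E. coli BL21-CodonPlus, purified on Ni–NTA.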
Consider “GTATGATATTTATGCTTTTCTACACGTTCCTGAAAGGATGCGGAGTCACCTAGTGCAG”, for which the binding signal was 3150 fluorescence intensity (a.u.).

Consider “TTCCGGCATGCTCAACAATTGGTCCAGGTGTTTGTTCCAGCGGAGTCACCTAGTGCAG”, for which the binding signal is 42200 fluorescence intensity (a.u.).

As for “CCCCGATCCCCTCCGTCATCGCTCCTAACCAATCAGCGCACGGAGTCACCTAGTGCAG”, the binding signal was 4100 fluorescence intensity (a.u.).

Take “ACCCGACCGCTACGCTGTCCTCCTAGGTGCTCACCAAGATCGGAGTCACCTAGTGCAG”: the binding signal was 3360 fluorescence intensity (a.u.).

Regarding “TCAATCATTCACATATGGCAATGACTCATACTCTTAATTGCGGAGTCACCTAGTGCAG”, the binding signal is 12000 fluorescence intensity (a.u.).

As to “CTTTGTCCGTTGCTTTTGCGGCGTGGGGTGACGCGGGGTACGGAGTCACCTAGTGCAG”, the binding signal is 5120 fluorescence intensity (a.u.).

On to “CTCCGAATCATTATCTACTGGGCTTATATTGAGCCAGGCCCGGAGTCACCTAGTGCAG”, for which the binding signal was 3650 fluorescence intensity (a.u.).

In the case of “CCGTCTTCCCGTCGACGATGCCCGACGTGTCCTTGCCCCACGGAGTCACCTAGTGCAG”, the binding signal is 6960 fluorescence intensity (a.u.).

Consider “AACATCAGCATGTTGGGCATCATGCCCTGCGGCCAGAAATCGGAGTCACCTAGTGCAG”, for which the binding signal is 19100 fluorescence intensity (a.u.).

As to “GTTTGCTAAATTTGGATGTCATCTGCATTGTGGGCTCGCTCGGAGTCACCTAGTGCAG”, the binding signal was 4810 fluorescence intensity (a.u.).

As for “GGACGTAGCCGTCGTCCTAGTCACTCACTCACTCATCACGCGGAGTCACCTAGTGCAG”, the binding signal was 8140 fluorescence intensity (a.u.).

Regarding “AGGATGTTCCTGACCTGGCCTTTGCCGGGTGATTTTGCAGCGGAGTCACCTAGTGCAG”, the binding signal is 4510 fluorescence intensity (a.u.).

On to “ACTCCTCACATATATATATATACCACATTGTTGTCATGGCCGGAGTCACCTAGTGCAG”, for which the binding signal was 3490 fluorescence intensity (a.u.).

As to “ACCGGCTCATTGCACACGTCAGGCATCTCGCGCCTATGTGCGGAGTCACCTAGTGCAG”, the binding signal was 10400 fluorescence intensity (a.u.).

As for “GGTAGTTTTGCTGACGATTTCATCCGACGTGGCGTGTTGACGGAGTCACCTAGTGCAG”, the binding signal is 14300 fluorescence intensity (a.u.).

In the case of “CCAGTCAATTAGTCAAACCCCATCCACCTCTCCTGGCTCTCGGAGTCACCTAGTGCAG”, the binding signal was 4540 fluorescence intensity (a.u.).

As to “CCGTATCGCATGCCCTCCCTCCCCGCATCGCACTTCTCCACGGAGTCACCTAGTGCAG”, the binding signal is 3490 fluorescence intensity (a.u.).

Take “TTACATGAACAGGGAAACCCTTTGGTTGTCAGCGTTCCTCCGGAGTCACCTAGTGCAG”: the binding signal is 3440 fluorescence intensity (a.u.).

Take “AGAAATATTTACGAACTGTTACTACTTGCTTGGACATATTCGGAGTCACCTAGTGCAG”: the binding signal was 3310 fluorescence intensity (a.u.).

For the sequence “TTACCCTTAGTCATTTGACCCTATTACATGTGGGACCCACCGGAGTCACCTAGTGCAG”, the binding signal is 3900 fluorescence intensity (a.u.).

Turning to “GTGGAGATGTTTGGGATGAGTCACTTGAATCTCCTTTCTACGGAGTCACCTAGTGCAG”, the binding signal was 10200 fluorescence intensity (a.u.).

For “TGACCGTCCGATCCCACGTCAGAGCAAGATGGACCGTCCGCGGAGTCACCTAGTGCAG”, the binding signal is 11000 fluorescence intensity (a.u.).

As for “AAATACAGGATATAAACGGACGTGTGGTCTCGTGGATCGGCGGAGTCACCTAGTGCAG”, the binding signal was 3180 fluorescence intensity (a.u.).

For the sequence “CGCTCCGGCTCGCCATGACTGCCTATGTGGACCTGCCTCTCGGAGTCACCTAGTGCAG”, the binding signal is 4660 fluorescence intensity (a.u.).

With “ACGCTACCTATAATAAGCTGATGTGCCAATCTTGGAGCCACGGAGTCACCTAGTGCAG”, the binding signal is 4050 fluorescence intensity (a.u.).

On to “GGAATAAATTATTTATCATTGGACCTACATGTCATGGACACGGAGTCACCTAGTGCAG”, for which the binding signal is 3950 fluorescence intensity (a.u.).

Regarding “ATCCTGATACTGACAACCTTGACTACATTTACTTGGTCACCGGAGTCACCTAGTGCAG”, the binding signal was 3900 fluorescence intensity (a.u.).

Regarding “GCCGCCGCCGCCTCCTCCTCTTGTTTCGCCACCGCCGCCGCGGAGTCACCTAGTGCAG”, the binding signal is 3200 fluorescence intensity (a.u.).

As for “TTAAGACTAGTATATACACACATACATACTCCCTGCGTCACGGAGTCACCTAGTGCAG”, the binding signal is 3350 fluorescence intensity (a.u.).

For “TTTCCCAACTAAACAATGCGTTGGGGCAAGTATTATAATGCGGAGTCACCTAGTGCAG”, the binding signal was 35800 fluorescence intensity (a.u.).

With “TCGTATACCCCGGCCATACGTGTTACGTGTTGTGCGCACACGGAGTCACCTAGTGCAG”, the binding signal is 6120 fluorescence intensity (a.u.).

As for “GAGGTCGATGCGGACGCCTCTATTTAATCGCCACCGCAGCCGGAGTCACCTAGTGCAG”, the binding signal was 3190 fluorescence intensity (a.u.).

As for “TCTGCAAGCACCAACGAGAAGCCACAAATGTTCACATCACCGGAGTCACCTAGTGCAG”, the binding signal was 3610 fluorescence intensity (a.u.).

With “AAGATAATGATGTAGACACGCAATCTGCGCGGGCCCACCACGGAGTCACCTAGTGCAG”, the binding signal was 3600 fluorescence intensity (a.u.).

As to “GTAATGAATTGATGGATGATGTGTCTGATTATTGGCACTGCGGAGTCACCTAGTGCAG”, the binding signal was 7800 fluorescence intensity (a.u.).

For the sequence “TCGATCATACTCTAAAATCCACATCATGGTTCACAAGAAGCGGAGTCACCTAGTGCAG”, the binding signal was 3400 fluorescence intensity (a.u.).

Consider “ACGTAAGAGGGACGTGGATCACTGACGTGTGGACCCAACCCGGAGTCACCTAGTGCAG”, for which the binding signal is 12400 fluorescence intensity (a.u.).

In the case of “ACATACATGCTACCCAATTTTGATTATTACTGTGCAGTTGCGGAGTCACCTAGTGCAG”, the binding signal was 3590 fluorescence intensity (a.u.).

“AGCAACTGGGTGGGGCGACGACGGGGATGGGTGGCAAACTCGGAGTCACCTAGTGCAG”: the binding signal was 3770 fluorescence intensity (a.u.).

With “TTGTATCTGTGTGAGCGCCACCTGAGCATGCATGATTGCTCGGAGTCACCTAGTGCAG”, the binding signal was 3590 fluorescence intensity (a.u.).

As to “TATGTTGAGTTTGAATTTGTATATTTATGAAATGGCATATCGGAGTCACCTAGTGCAG”, the binding signal is 33000 fluorescence intensity (a.u.).

As to “TTCCAAGTAGGATAATATGCTGACATGGATATCTTATGGACGGAGTCACCTAGTGCAG”, the binding signal is 4620 fluorescence intensity (a.u.).
